Measurements reported in publication PMC9481463.
Results are given in words; binding and its absence hold for the method and conditions named. In cells and extracts the contact can be indirect. Here binding means that the protein was enriched with, or labelled near, the bait; the list need not be complete. Blank lines part the entries; values can stand above or below the binder they belong to.

Target: T1, purine-rich element binding protein alpha (PURα) (human (endogenous in KYSE510)) (UniProt Q00577)
T1 sequence: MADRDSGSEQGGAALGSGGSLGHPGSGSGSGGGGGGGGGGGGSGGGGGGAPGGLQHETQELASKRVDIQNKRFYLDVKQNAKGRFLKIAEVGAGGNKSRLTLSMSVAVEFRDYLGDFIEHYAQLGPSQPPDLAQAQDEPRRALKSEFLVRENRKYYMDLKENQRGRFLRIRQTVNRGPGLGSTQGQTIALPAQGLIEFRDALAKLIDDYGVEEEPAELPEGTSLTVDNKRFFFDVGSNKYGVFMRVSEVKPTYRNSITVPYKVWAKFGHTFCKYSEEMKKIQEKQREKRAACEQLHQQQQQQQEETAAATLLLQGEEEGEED
Assay: affinity purification with mass spectrometry; whole-cell extracts of KYSE510 cells immunoprecipitated with anti-PURα antibody or rabbit IgG on magnetic beads; on-bead trypsin; label-free quantification (LFQ) LC-MS/MS; criteria unique peptides ≥1 and LFQ intensity ratio ≥1.8

binding: binds
B1: NOP58 (protein, UniProt Q9Y2X3 1-529)
chain: MLVLFETSVGYAIFKVLNEKKLQEVDSLWKEFETPEKANKIVKLKHFEKFQDTAEALAAFTALMEGKINKQLKKVLKKIVKEAHEPLAVADAKLGGVIKEKLNLSCIHSPVVNELMRGIRSQMDGLIPGVEPREMAAMCLGLAHSLSRYRLKFSADKVDTMIVQAISLLDDLDKELNNYIMRCREWYGWHFPELGKIISDNLTYCKCLQKVGDRKNYASAKLSELLPEEVEAEVKAAAEISMGTEVSEEDICNILHLCTQVIEISEYRTQLYEYLQNRMMAIAPNVTVMVGELVGARLIAHAGSLLNLAKHAASTVQILGAEKALFRALKSRRDTPKYGLIYHASLVGQTSPKHKGKISRMLAAKTVLAIRYDAFGEDSSSAMGVENRAKLEARLRTLEDRGIRKISGTGKALAKTEKYEHKSEVKTYDPSGDSTLPTCSKKRKIEQVDKEDEITEKKAKKAKIKVKVEEEEEEKVAEEEETSVKKKKKRGKKKHIKEEPLSEEEPCTSTAIASPEKKKKKKKKRENED

binding: binds
B2: PURβ (protein, UniProt Q96QR8 1-312)
chain: MADGDSGSERGGGGGPCGFQPASRGGGEQETQELASKRLDIQNKRFYLDVKQNAKGRFLKIAEVGAGGSKSRLTLSMAVAAEFRDSLGDFIEHYAQLGPSSPEQLAAGAEEGGGPRRALKSEFLVRENRKYYLDLKENQRGRFLRIRQTVNRGGGGFGAGPGPGGLQSGQTIALPAQGLIEFRDALAKLIDDYGGEDDELAGGPGGGAGGPGGGLYGELPEGTSITVDSKRFFFDVGCNKYGVFLRVSEVKPSYRNAITVPFKAWGKFGGAFCRYADEMKEIQERQRDKLYERRGGGSGGGEESEGEEVDED
